Data on one substance can be found in paper PMC7591920, “A protein tertiary structure mimetic modulator of the Hippo signalling pathway” (Nature Communications, 2020).

The target in this test is T1, biotinylated VGL4(203–256) (b-1) (not stated (mouse and human identical in this stretch)) (UniProt Q80V24).
T1 sequence (peptide, biotin (position not stated)): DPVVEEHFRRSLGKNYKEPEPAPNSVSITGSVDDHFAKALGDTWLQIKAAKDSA
The test is described as follows: pull-down; competition pull-down: biotinylated VGL4 on streptavidin magnetic beads; GST-hTEAD1 (1 µM) preincubated 30 min with peptide (50 and 200 µM), then 2.5 h with beads at room temperature; 300 mM NaCl, 25 mM Tris pH 8.8, 2 mM DTT, 2% glycerol; SDS-PAGE, Coomassie; both purified.

These are yes or no findings as the source states them, for the method shown. A result given as binding can be weak or reduced; the word gives no strength. Sequences can lack the tags named with a protein.

Consider “GST-hTEAD1(209–426) (human) (domain or fragment)”, for which the binding entry is “binds”.
